Assay: general procedure: Fmoc solid-phase peptide synthesis; CTL resin
Details: whole synthesis

Q: With Thr-Met-Arg-Asp (TMRD) as the substance, how does the crude mass read?
A: 0.8 g

Q: What about the crude yield (scale of the general procedure 700 mg resin) of the same substance?
A: 90.1%

— patent US10925923B2 (CAREGEN CO., LTD., priority 2016, dated 2021)
